Experimental data as given in patent US20100092974A1, “METHODS FOR SCREENING FOR MODULATORS OF CCRL2” (The Board of Trustees of the Leland Stanford Junior …, priority 2008, published 2010).
No constants are given. Whether binding was seen depends on the method and setting. Some binding calls cover weakened binding; strength is not graded here. Tags and fused reporters may be left off the sequences shown.

Target: T1, mouse CCRL2 (chemokine (CC motif) receptor-like 2), untagged (mouse) (UniProt O35457)
T1 sequence (looked up): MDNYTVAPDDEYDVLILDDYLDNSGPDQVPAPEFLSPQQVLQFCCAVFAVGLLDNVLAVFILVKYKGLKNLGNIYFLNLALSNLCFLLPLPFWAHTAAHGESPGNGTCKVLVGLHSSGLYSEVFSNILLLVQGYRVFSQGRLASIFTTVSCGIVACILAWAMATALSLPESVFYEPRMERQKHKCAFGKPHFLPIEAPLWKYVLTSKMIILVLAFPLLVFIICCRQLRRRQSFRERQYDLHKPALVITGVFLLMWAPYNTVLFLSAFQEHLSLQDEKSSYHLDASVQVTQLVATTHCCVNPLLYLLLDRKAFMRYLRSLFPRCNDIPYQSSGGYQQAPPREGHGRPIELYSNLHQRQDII
Assay: flow cytometry on peritoneal mast cells; chemerin blocks the staining by the anti-mCCRL2 mAb (legend: BZ2E3; paragraph 140: BZ5B8) [panel A]

binding: binds
B1: human chemerin (as used to block anti-mCCRL2 staining, FIG. 6 Panel A) (ligand, UniProt Q99969 21-157, looked up)
chain: ELTEAQRRGLQVALEEFHKHPPVQWAFQETSVESAVDTPFPAGIFVRLEFKLQQTSCRKRDWKKPECKVRPNGRKRKCLACIKLGSEDKVLGRLVHCPIETQVLREAEEHQETQCLRVQRAGEDPHSFYFPGQFAFS
